Data taken from PubChem BioAssay AID1508630, deposited by NCATS (2021).

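Human neuroblastoma cells release a Gaussia luciferase reporter when ER calcium drops after thapsigargin, and that light output is measured (one 4-hour incubation is noted).
Compounds were run as a dilution series spanning about 2.6e-05 to 200 µM, mostly topping out at 38.4 µM.
The number is the fitted AC50 for inhibition of the reporter signal; a lower value means a more potent compound.
Calls come from curve class and activity score: actives score 40 to 100, inconclusives 1 to 39, and inactives (curve class 4) score 0.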

Values are in µM.
Every entry below has the call inconclusive.
These entries are mostly ones the record files as inconclusive; other results of the assay are not listed here.
Potencies fitted to partial, single-point or poorly fitting curves are rough.
Some entries filed as inconclusive have a full curve.
Activity scores are not listed here.
An entry listed twice with the same setting is a separate test.

CN(Cc1ccco1)c1nc(-c2ccccc2Cl)nc2ccccc12 read potency 25.12 µM (inhibitor, single point). Result for O=S(=O)(c1cccc2cnccc12)N1CCNCC1 was potency 31.62 µM (inhibitor, partial curve, poor fit). Result for C=C1C[C@@]23CC[C@H]4[C@@](C)(CCC[C@@]4(C)C(=O)OC4OC(CO)C(O)C(O)C4O)[C@@H]2CC[C@]1(OC1OC(CO)C(O)C(O)C1OC1OC(CO)C(O)C(O)C1O)C3 (stereo not given in full) was potency 2.512 µM (inhibitor, full curve). With CN1CCN(c2nc(-c3cccc(C#N)c3)nc3ccccc23)CC1 the assay gave potency 8.912 µM (inhibitor, partial curve, poor fit). Cc1nc2cnc(N(C)C)nc2n(Cc2cccs2)c1=O read potency 28.18 µM (inhibitor, single point). Result for NC(=O)CCCCn1ccc(NC(N)=NCC(F)(F)F)n1 was potency 1.122 µM (inhibitor, full curve). For CCOC(=O)C1=C(COCCN)NC(C)=C(C(=O)OC)C1c1ccccc1Cl (stereo not given) the result was potency 31.62 µM (inhibitor, single point). With NC1CCc2cc(O)c(O)cc2C1 (stereo not given) the assay gave potency 44.67 µM (inhibitor, partial curve).

Oc1ccccc1 read potency 35.48 µM (inhibitor, full curve). With O=C(O)Cc1cn(-c2ccccc2)nc1-c1ccc(Cl)cc1 the assay gave potency 35.48 µM (inhibitor, partial curve, poor fit). Result for C[C@](N)(Cc1ccc(O)c(O)c1)C(=O)O was potency 28.18 µM (inhibitor, single point). For Nc1nc2ccc(Cl)cc2c2nc(-c3ccco3)nn12 the result was potency 25.12 µM (inhibitor, single point). O=C(O)[C@H](O)c1ccccc1 read potency 5.012 µM (inhibitor, partial curve, poor fit). For CN(C)CCCSc1ccccc1NC(=O)/C=C\c1ccccc1 the result was potency 28.18 µM (inhibitor, single point). Result for CCNc1ncc2ncc(=O)n(Cc3ccc(F)cc3)c2n1 was potency 11.22 µM (inhibitor, single point). For COc1cccc(Cn2c(=O)c(C)nc3cnc(N4CCN(C)CC4)nc32)c1 the result was potency 11.22 µM (inhibitor, partial curve, poor fit).

With COc1ccc(CCN(C)CCc2ccc(OC)c(OC)c2)cc1OC the assay gave potency 28.18 µM (inhibitor, single point). With NC1CCc2cc(O)c(O)cc2C1 (stereo not given) the assay gave potency 11.22 µM (inhibitor, full curve). NCCS(=O)O gave potency 1 µM (inhibitor, full curve, poor fit). NC1CCc2cc(O)c(O)cc2C1 (stereo not given) read potency 35.48 µM (inhibitor, full curve). For CCCN(CCC)C[C@@H]1CCCCN1CCNC(=O)N1c2ccccc2C(=O)Nc2cccnc21 the result was potency 28.18 µM (inhibitor, single point). N#C/C(=C\c1ccc(O)c(O)c1)C(=O)NCCCNC(=O)/C(C#N)=C/c1ccc(O)c(O)c1 gave potency 3.548 µM (inhibitor, partial curve, poor fit). Result for N[C@H]1CCN(O)C1=O was potency 2.239 µM (inhibitor, full curve). Result for CN1C2CCC1CC(OC(=O)c1c[nH]c3ccccc13)C2 (stereo not given) was potency 7.943 µM (inhibitor, partial curve, poor fit).

Cc1nc2cnc(N3CCOCC3)nc2n(Cc2cccs2)c1=O read potency 28.18 µM (inhibitor, single point). For COc1ncc2nc(C)c(=O)n(C)c2n1 the result was potency 2.512 µM (inhibitor, full curve). C[C@](N)(Cc1ccc(O)c(O)c1)C(=O)O read potency 39.81 µM (inhibitor, partial curve). With Cc1nc2sccn2c(=O)c1CCN1CCC(=C(c2ccccc2)c2ccc(F)cc2)CC1 the assay gave potency 28.18 µM (inhibitor, single point). Result for C[C@@H](NCc1cc(Br)cc2[nH]c(=O)c(=O)[nH]c12)P(=O)(O)O was potency 11.22 µM (inhibitor, full curve). CCCCCCCC/C=C\CCCCCCCC(=O)NCCO gave potency 3.981 µM (inhibitor, partial curve, poor fit). C[N+](C)(C)CC(=O)O gave potency 3.162 µM (inhibitor, full curve, poor fit). For COCCn1c(=O)c(-c2ccc(OC)cc2)nc2cnc(Oc3ccccc3)nc21 the result was potency 19.95 µM (inhibitor, single point).

Result for O=[N+]([O-])/C=C/c1ccc2c(c1)OCO2 was potency 31.62 µM (inhibitor, single point). Oc1cc(O)cc(/C=C/c2ccc(O)c(O)c2)c1 gave potency 35.48 µM (inhibitor, partial curve, poor fit).

3 of the entries, repeated:

* NC1CCc2cc(O)c(O)cc2C1 (stereo not given) | potency 44.67 µM (inhibitor, partial curve)
* Cc1nc2cnc(N(C)C)nc2n(Cc2cccs2)c1=O | potency 28.18 µM (inhibitor, single point)
* CN(C)CCCSc1ccccc1NC(=O)/C=C\c1ccccc1 | potency 28.18 µM (inhibitor, single point)